From patent US9091687B2, “ELISpot diagnostic kit for neuromyelitis optica and its application” (priority 2012, dated 2015)

Tested on: specific IL-4 T-cells secreted in the peripheral blood of NMO victims
Assay: ELISpot diagnosis of NMO: IL-4 spot detection in PBMC stimulated with the AQP-4 polypeptide
Type: cell-based, human
Details: 20 NMO victims
Method: This invention is applied to differentially diagnose 20 cases in the control group of healthy people (the Control Group), 20 cases in the control group suffering disease (multiple sclerosis victims, the MS Group) and 20 cases in the NMO group (the NMO Group), so as to preliminarily judge the specificity and sensitivity of this invention in the NMO diagnosis and then judge its clinical significance.
Add 1:500 diluted IL-4 capture antibody into the ELISpot filtration membrane plate, at 100 ul/hole; after staying overnight at 4° C., use sterile phosphate buffered solution (PBS) to wash the plate for 3 times, at 3 min/time;
PBS containing 5% bovine serum albumin is added into each hold, incubated for 2 h at 37° C.; after sealing, it is stored at 4° C., for use within 1 week.
4-5 ml of victim or health person's peripheral anticoagulated blood for storage at the normal temperature, to be detected within 6 h;
Under the condition of aseptic processing, the 1640 culture medium is used to dilute the blood at a volume ratio of 1:1, evenly mixed and then added to the surface of lymphocyte separating medium of 1 time volume, forming an obvious interface; under the room temperature, 1000 g is centrifuged for 22 min;
Use the sterile suction tube to absorb the peripheral blood mononuclear cell (PBMC) of separating layer and place it in one sterile centrifugal tube; add 8 ml of 1640 culture medium without blood serum; taken 700 g for centrifuging for 7 min;
Abandon the supernatant culture medium, and add 6 ml of 1640 culture medium suspended cells containing 10% calf serum; taken 300 g for centrifuging for 5 min; […]
Add 100 μl of substrate liquid nitrogen blue tetrazolium and 5-Br-4-Cl-3 indole phosphoric acid into each hole; place under the room temperature in a closed way for 15 min till spots appear; use the tap water to wash and then air-dry it; check the quantity of spots for statistics and analyses. […]

[1] = 20 healthy controls, 20 multiple sclerosis victims, 50 ul of 50 ug/ml polypeptide, PBMC cultivated 20 hours, preliminarily held

“IMVAFKGVWTQAFWKCLVTPPSVVGGLGVTMVHGNLT (listed as Homo sapiens) [this invention, polypeptide fragment joining immunogenic human AQP-4 fragments (23-36 and 135-155 amino acids), used in the ELISpot kit for diagnosis of NMO]” was tested, and the detectable rate (FIG. 2) was 85%, the “sensitivity of NMO diagnosis” value [1] was 85% and the “specificity of NMO diagnosis” value [1] was 95%.
